Laboratory results from paper PMC7549839, “Posttranslational insertion of small membrane proteins by the bacterial signal recognition particle” (PLoS Biology, 2020).
No constants are given. Whether binding was seen depends on the method and setting. Binding seen in cells or lysates may run through a third protein. Some results given as binding are weak or reduced against the parent protein; the word gives no strength.

Legend:
[1] = molecular target: T1, MtlA-189 ribosome-associated nascent chain (E. coli) (UniProt P00550); assay: cross-linking; as the DSS cross-linking of MtlA-189 RNCs with purified SRP, but puromycin (1 mM) added prior to DSS; only the binder purified
T1 sequence: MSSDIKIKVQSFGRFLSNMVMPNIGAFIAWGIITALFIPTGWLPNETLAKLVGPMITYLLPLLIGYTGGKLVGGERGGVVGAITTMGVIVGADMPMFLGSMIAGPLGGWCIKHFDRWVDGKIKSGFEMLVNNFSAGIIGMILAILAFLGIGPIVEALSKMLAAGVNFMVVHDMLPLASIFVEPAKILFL

[2] = molecular target: T1, MtlA-189 ribosome-associated nascent chain (E. coli); assay: cross-linking; DSS cross-linking of in vitro synthesized MtlA-189 RNCs with added purified SRP; HEPES/NaOH pH 7.5, 30 min at 25 C; SDS-PAGE, autoradiography; only the binder purified

binding [2]: binds
B1: signal recognition particle (SRP), purified (complex, UniProt P0AGD7 1-453)
chain: MFDNLTDRLSRTLRNISGRGRLTEDNVKDTLREVRMALLEADVALPVVREFINRVKEKAVGHEVNKSLTPGQEFVKIVRNELVAAMGEENQTLNLAAQPPAVVLMAGLQGAGKTTSVGKLGKFLREKHKKKVLVVSADVYRPAAIKQLETLAEQVGVDFFPSDVGQKPVDIVNAALKEAKLKFYDVLLVDTAGRLHVDEAMMDEIKQVHASINPVETLFVVDAMTGQDAANTAKAFNEALPLTGVVLTKVDGDARGGAALSIRHITGKPIKFLGVGEKTEALEPFHPDRIASRILGMGDVLSLIEDIESKVDRAQAEKLASKLKKGDGFDLNDFLEQLRQMKNMGGMASLMGKLPGMGQIPDNVKSQMDDKVLVRMEAIINSMTMKERAKPEIIKGSRKRRIAAGCGMQVQDVNRLLKQFDDMQRMMKKMKKGGMAKMMRSMKGMMPPGFPGR
binding [1]: no binding (condition: after puromycin (1 mM) treatment)
